Assay results published in patent US20230148152A1, “METHOD OF SYNTHESIZING SINGLE-STRANDED NUCLEOTIDE SEQUENCE, BLOCKED NUCLEOSIDE TRIPHOSPHATES AND RELATED METHODS” (Agency for Science, Technology and Research, priority 2019, published 2023).

Test system: terminal deoxynucleotidyl transferase (TdT)
Assay: Evaluation of reversibility of reversible terminators (incorporation, capping, deprotection, elongation)
Type: biochemical

Compound | removal of the removable terminating group (3′-OH retrieved) (CE removal: 30% NH4OH, 80° C. for 1 h, FIG. 13 and FIG. 14) | removal of the removable terminating group (DT removal: 0.1 M DTT solution for 1 h, FIG. 15)
Cc1cn([C@H]2C[C@H](OCCC#N)[C@@H](COP(=O)(O)OP(=O)(O)OP(=O)(O)O)O2)c(=O)[nH]c1=O [CE-dTTP, 2-cyanoethyl ether (CE)-dTTP] | successful | 
Cc1cn([C@H]2C[C@H](OC(=O)OCCSSC(C)(C)C)[C@@H](COP(=O)(O)OP(=O)(O)OP(=O)(O)O)O2)c(=O)[nH]c1=O [DT-dTTP, disulfide carbonate (DT)-dTTP] |  | successful
